Results as given in paper PMC9838529.
These are yes or no findings as the source states them, for the method shown.

Protein sequences, listed by entry. Tags and fused reporters are not part of them. Lines headed by an entry give the natural chain unless they say otherwise; changes in a name come on top. Chains listed by the source or under a name are the forms on record and can include a tag or linker.
disulphide-trapped C9 variant (F262C/V405C) (P02748, form named): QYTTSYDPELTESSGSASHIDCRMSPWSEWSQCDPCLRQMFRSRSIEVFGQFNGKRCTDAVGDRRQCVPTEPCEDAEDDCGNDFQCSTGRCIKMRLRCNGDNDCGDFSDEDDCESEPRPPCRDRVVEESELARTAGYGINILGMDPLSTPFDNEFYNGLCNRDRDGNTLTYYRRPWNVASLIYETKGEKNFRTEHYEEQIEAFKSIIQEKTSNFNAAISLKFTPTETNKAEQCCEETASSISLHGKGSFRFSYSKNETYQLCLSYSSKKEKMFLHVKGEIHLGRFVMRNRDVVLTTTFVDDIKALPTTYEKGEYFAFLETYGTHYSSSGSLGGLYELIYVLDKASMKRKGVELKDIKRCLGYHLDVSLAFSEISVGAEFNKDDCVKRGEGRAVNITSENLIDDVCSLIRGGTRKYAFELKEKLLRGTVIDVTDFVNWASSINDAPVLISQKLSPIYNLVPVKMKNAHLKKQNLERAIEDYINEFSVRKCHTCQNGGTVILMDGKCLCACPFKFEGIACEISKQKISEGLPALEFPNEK

Molecular target: disulphide-trapped C9 variant (F262C/V405C) (human) (UniProt P02748)
Test: AUC; sedimentation velocity, C9 at 0.5 mg/ml (~7.9 μM) in 10 mM HEPES pH 7.2, 150 mM NaCl, 1 mM EDTA, 25 °C; both purified

- binding: no binding (tested: ~7.5 µM)
Substance: disulphide-trapped C9 variant (F262C/V405C) (from UniProt P02748 22-559)
